One assay has as its target coilin-D79A-GFP (human) (UniProt P38432). The assay is described as follows: co-IP.
The target in a further assay is coilin-R36A-GFP (human) (UniProt P38432). Put plainly: co-IP.
Another assay concerns the target coilin-R8A-GFP (human) (UniProt P38432). The assay is described as follows: co-IP.
Assay [1] addresses wild-type coilin-GFP (human) (UniProt P38432). Put plainly: co-IP.
Assay [2] concerns the target coilin R36A, CFP-tagged, for FRET in HeLa cells (human) (UniProt P38432). Put plainly: FRET or BRET.
Assay [3] addresses coilin R8A, CFP- and YFP-tagged, for FRET in HeLa cells (human) (UniProt P38432). Put plainly: FRET or BRET.
The target of assay [4] is coilin NTD R36A, CFP- and YFP-labeled copies for FRET (human) (UniProt P38432). The assay is described as follows: FRET or BRET. A general note: In BRET a luciferase serves as donor, and the signal depends on an acceptor being close.

No constants are given. Whether binding was seen depends on the method and setting. In cells and extracts the contact can be indirect. Some binding calls cover weakened binding; strength is not graded here. For part of these data: Where a sequence is shown, tags or fusion partners need not be part of it.

“endogenous coilin (from UniProt P38432 1-576)”: the binding result with coilin-D79A-GFP (human), with coilin-R36A-GFP (human) and with coilin-R8A-GFP (human) was “binds” in each case.

B1: endogenous Nopp140 (protein, UniProt Q14978 1-699)
chain: MADAGIRRVVPSDLYPLVLGFLRDNQLSEVANKFAKATGATQQDANASSLLDIYSFWLKSAKVPERKLQANGPVAKKAKKKASSSDSEDSSEEEEEVQGPPAKKAAVPAKRVGLPPGKAAAKASESSSSEESSDDDDEEDQKKQPVQKGVKPQAKAAKAPPKKAKSSDSDSDSSSEDEPPKNQKPKITPVTVKAQTKAPPKPARAAPKIANGKAASSSSSSSSSSSSDDSEEEKAAATPKKTVPKKQVVAKAPVKAATTPTRKSSSSEDSSSDEEEEQKKPMKNKPGPYSSVPPPSAPPPKKSLGTQPPKKAVEKQQPVESSEDSSDESDSSSEEEKKPPTKAVVSKATTKPPPAKKAAESSSDSSDSDSSEDDEAPSKPAGTTKNSSNKPAVTTKSPAVKPAAAPKQPVGGGQKLLTRKADSSSSEEESSSSEEEKTKKMVATTKPKATAKAALSLPAKQAPQGSRDSSSDSDSSSSEEEEEKTSKSAVKKKPQKVAGGAAPSKPASAKKGKAESSNSSSSDDSSEEEEEKLKGKGSPRPQAPKANGTSALTAQNGKAAKNSEEEEEEKKKAAVVVSKSGSLKKRKQNEAAKEAETPQAKKIKLQTPNTFPKRKKGEKRASSPFRRVREEEIEVDSRVADNSFDAKRGAAGDWGERANQVLKFTKGKSFRHEKTKKKRGSYRGGSISVQVNSIKFDSE
In the case of B1, the figures for the binding result (in the assay with coilin-R36A-GFP (human); with coilin-R8A-GFP (human); in assay [1]) were “no binding”, “no binding” and “binds”, respectively.

B2: Nopp140-YFP (protein, UniProt Q14978 1-699)
chain: MADAGIRRVVPSDLYPLVLGFLRDNQLSEVANKFAKATGATQQDANASSLLDIYSFWLKSAKVPERKLQANGPVAKKAKKKASSSDSEDSSEEEEEVQGPPAKKAAVPAKRVGLPPGKAAAKASESSSSEESSDDDDEEDQKKQPVQKGVKPQAKAAKAPPKKAKSSDSDSDSSSEDEPPKNQKPKITPVTVKAQTKAPPKPARAAPKIANGKAASSSSSSSSSSSSDDSEEEKAAATPKKTVPKKQVVAKAPVKAATTPTRKSSSSEDSSSDEEEEQKKPMKNKPGPYSSVPPPSAPPPKKSLGTQPPKKAVEKQQPVESSEDSSDESDSSSEEEKKPPTKAVVSKATTKPPPAKKAAESSSDSSDSDSSEDDEAPSKPAGTTKNSSNKPAVTTKSPAVKPAAAPKQPVGGGQKLLTRKADSSSSEEESSSSEEEKTKKMVATTKPKATAKAALSLPAKQAPQGSRDSSSDSDSSSSEEEEEKTSKSAVKKKPQKVAGGAAPSKPASAKKGKAESSNSSSSDDSSEEEEEKLKGKGSPRPQAPKANGTSALTAQNGKAAKNSEEEEEEKKKAAVVVSKSGSLKKRKQNEAAKEAETPQAKKIKLQTPNTFPKRKKGEKRASSPFRRVREEEIEVDSRVADNSFDAKRGAAGDWGERANQVLKFTKGKSFRHEKTKKKRGSYRGGSISVQVNSIKFDSE
As for B2, the binding result in assay [2] and in assay [3] was “no binding” throughout.

B3: coilin NTD R36A, CFP- and YFP-labeled copies for FRET (domain or fragment, UniProt P38432 1-97)
chain: MAASETVRLRLQFDYPPPATPHCTAFWLLVDLNRCAVVTDLISLIRQRFGFSSGAFLGLYLEGGLLPPAESARLVRDNDCLRVKLEERGVAENSVVI
With B3, the binding result in assay [4] is on record as “binds”.

Source of the values: doi:10.1101/2021.08.01.454609.
